Source: paper PMC3914767
These are yes or no findings as the source states them, for the method shown. Some binding calls cover weakened binding; strength is not graded here.

Sequences of proteins named here, by UniProt entry; tags and fusion partners are left off. A change or cut given only in a name is not applied to a line headed by its entry. A line that says so, or that is headed by a name, gives the form on record, which may keep a tag or linker.
UniProt Q9P286: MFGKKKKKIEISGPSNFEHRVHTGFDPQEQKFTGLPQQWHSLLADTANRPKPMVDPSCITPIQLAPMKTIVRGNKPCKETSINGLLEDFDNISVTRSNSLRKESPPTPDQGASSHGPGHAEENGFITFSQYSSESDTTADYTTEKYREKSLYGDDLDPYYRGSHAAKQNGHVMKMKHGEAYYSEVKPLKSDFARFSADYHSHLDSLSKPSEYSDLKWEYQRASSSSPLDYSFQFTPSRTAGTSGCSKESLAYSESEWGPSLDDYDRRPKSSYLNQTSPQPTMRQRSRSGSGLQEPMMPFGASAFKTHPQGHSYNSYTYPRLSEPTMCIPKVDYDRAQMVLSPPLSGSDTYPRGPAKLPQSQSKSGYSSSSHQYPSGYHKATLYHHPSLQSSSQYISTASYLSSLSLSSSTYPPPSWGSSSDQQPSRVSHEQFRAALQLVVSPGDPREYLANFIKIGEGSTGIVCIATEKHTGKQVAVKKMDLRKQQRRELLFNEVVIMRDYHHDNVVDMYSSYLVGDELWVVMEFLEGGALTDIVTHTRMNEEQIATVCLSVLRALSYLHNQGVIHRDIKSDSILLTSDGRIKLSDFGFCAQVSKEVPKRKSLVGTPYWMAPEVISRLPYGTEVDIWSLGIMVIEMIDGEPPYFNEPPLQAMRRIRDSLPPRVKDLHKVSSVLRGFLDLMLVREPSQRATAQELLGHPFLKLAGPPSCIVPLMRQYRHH
UniProt O96013: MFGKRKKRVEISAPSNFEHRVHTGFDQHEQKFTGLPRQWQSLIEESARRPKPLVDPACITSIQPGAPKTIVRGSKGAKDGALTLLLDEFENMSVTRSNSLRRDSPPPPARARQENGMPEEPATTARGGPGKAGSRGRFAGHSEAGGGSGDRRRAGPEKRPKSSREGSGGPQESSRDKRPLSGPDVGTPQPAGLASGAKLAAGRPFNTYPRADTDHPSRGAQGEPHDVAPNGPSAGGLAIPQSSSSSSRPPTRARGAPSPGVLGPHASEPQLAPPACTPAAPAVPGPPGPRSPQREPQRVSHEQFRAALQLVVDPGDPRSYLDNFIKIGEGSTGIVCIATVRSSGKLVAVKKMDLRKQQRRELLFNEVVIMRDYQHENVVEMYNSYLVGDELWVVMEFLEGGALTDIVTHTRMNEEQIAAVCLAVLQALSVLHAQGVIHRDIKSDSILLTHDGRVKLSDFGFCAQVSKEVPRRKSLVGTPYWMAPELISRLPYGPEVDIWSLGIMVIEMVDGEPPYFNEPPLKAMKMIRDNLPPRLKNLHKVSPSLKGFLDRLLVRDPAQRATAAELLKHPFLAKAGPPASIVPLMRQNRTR
PAK4-GFP Ser181Ala (O96013, form named): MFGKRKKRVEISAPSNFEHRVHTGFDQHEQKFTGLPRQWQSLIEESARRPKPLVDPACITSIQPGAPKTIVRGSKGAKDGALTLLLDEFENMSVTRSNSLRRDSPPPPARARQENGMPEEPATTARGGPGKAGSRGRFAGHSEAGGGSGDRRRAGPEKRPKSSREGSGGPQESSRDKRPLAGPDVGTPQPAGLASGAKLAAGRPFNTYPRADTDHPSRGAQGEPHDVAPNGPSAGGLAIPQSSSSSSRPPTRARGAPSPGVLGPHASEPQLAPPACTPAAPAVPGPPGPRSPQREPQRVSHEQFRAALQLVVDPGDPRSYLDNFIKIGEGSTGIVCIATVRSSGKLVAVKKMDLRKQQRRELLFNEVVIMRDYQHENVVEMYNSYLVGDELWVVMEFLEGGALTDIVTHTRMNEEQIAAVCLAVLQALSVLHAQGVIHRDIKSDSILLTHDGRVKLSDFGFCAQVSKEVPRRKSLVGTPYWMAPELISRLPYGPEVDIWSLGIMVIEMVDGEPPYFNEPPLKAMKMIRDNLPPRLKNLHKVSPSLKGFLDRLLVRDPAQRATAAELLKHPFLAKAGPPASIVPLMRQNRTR
PAK4-GFP Ser99Ala (O96013, form named): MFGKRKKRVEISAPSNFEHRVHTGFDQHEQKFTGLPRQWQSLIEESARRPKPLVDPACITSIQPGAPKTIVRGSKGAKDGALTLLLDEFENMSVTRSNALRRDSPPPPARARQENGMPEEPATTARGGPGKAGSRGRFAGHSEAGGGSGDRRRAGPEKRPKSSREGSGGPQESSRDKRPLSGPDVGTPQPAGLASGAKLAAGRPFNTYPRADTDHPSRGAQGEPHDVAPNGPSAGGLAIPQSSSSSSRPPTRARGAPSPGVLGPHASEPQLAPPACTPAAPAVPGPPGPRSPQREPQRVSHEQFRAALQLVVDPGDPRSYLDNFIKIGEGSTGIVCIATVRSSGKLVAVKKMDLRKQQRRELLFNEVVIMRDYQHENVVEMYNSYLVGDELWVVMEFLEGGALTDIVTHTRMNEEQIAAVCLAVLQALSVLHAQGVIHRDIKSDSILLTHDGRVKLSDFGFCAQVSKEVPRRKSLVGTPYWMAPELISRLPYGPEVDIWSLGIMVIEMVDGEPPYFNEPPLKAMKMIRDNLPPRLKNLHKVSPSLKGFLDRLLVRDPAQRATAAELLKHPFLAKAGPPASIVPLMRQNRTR
UniProt P29311: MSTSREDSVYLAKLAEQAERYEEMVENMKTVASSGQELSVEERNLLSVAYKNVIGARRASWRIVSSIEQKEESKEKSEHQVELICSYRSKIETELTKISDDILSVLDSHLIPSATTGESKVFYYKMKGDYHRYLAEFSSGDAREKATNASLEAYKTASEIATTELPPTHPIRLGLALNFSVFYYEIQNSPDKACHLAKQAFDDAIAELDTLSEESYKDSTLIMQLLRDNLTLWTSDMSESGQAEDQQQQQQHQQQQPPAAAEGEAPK

Legend:
PAK7-GFP (human) [1] = biological target: PAK7-GFP (human) (UniProt Q9P286); test: condition: only PAK-GFP on the beads dephosphorylated with lambda phosphatase; far-Western, overlay or dot blot; GFP-tagged proteins on GFP-Trap beads dephosphorylated with 3 ug lambda phosphatase, 2 mM MnCl2, 30 min 30°C (control: plus 10 mM EDTA), then overlay with digoxygenin-labelled 14-3-3; both purified
PAK7-GFP (human) [2] = biological target: PAK7-GFP (human) (UniProt Q9P286); test: far-Western, overlay or dot blot; PAK-GFP proteins isolated with GFP-Trap from lysates of transfected HEK293 cells (in 10% serum, or serum-starved 10 h and stimulated with PMA 100 nM 30 min), blotted and probed with digoxygenin-labelled 14-3-3 (mix of yeast BMH1 and BMH2) in place of a primary antibody; both purified
[3] = biological target: PAK4-GFP Ser181Ala (human) (UniProt O96013); test: as above
[4] = biological target: PAK4-GFP Ser99Ala (human) (UniProt O96013); test: as above

Substance: digoxygenin-labelled 14-3-3 (a mix of the Saccharomyces cerevisiae BMH1 and BMH2 14-3-3 isoforms) (from UniProt P29311 1-267; P34730 1-273)
- binding (PAK7-GFP (human) [1]): no binding
- binding (PAK7-GFP (human) [2]): binds
- binding [3]: binds
- binding [4]: binds
